Experimental data as given in the supplement of paper PMC12889115.
This is one part of the list. Values are raw readings; no control value is given beside them.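 In the initial screen, polymyxin B was used at a concentration that permeabilizes Salmonella's outer membrane but not its inner membrane. Maximum growth was set by DMSO wells with or without polymyxin B. Since plates varied, data were ranked per plate, and compounds giving the lowest OD600 advanced as hits.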

Test system: Salmonella enterica serovar Typhimurium SL1344
Assay: bacterial growth OD600 after 18 h with compound and polymyxin B; higher = more bacterial growth (less inhibition)
Conditions: 50 µM, Mueller-Hinton broth

Compound	bacterial growth OD600 (polymyxin B 1 µg/mL)	bacterial growth OD600 (polymyxin B 0.75 µg/mL)
COc1ccc(C(=O)N2CCN(C(=O)Cn3nnnc3CN3CCCC3)CC2)cc1	0.914	
OCC1(CCCc2ccccc2)CCN(Cc2c[nH]nc2-c2cccc(F)c2)CC1		0.829
O=C(c1coc(COc2ccc3c(c2)OCO3)n1)N1CCCCCCC1	0.653	
COC(=O)[C@@H](NC(=O)CCC1(Cc2ccc(F)cc2)CCC(=O)N1)c1ccccc1 (stereo partly drawn)		0.804
COCc1ccc(C(=O)Nc2ccc(-c3nc(CNC(=O)c4cc(C)nc(C)n4)c(C)o3)cc2)o1		0.781
COc1cc(CN(C(=O)c2ccccc2C(F)(F)F)[C@H]2CCCCNC2=O)cc(OC)c1OCCc1ccsc1		0.745
COc1cc([C@@H]2C[C@H]3CN(C)C(=O)[C@]34CCCN24)ccc1F		0.793
CCOC(=O)C1(Cc2ccccc2F)CCCN(C(=O)Cn2nc(C)cc2C)C1 (stereo not drawn)	0.962	
COc1cccc(CN2CCN(Cc3ccccc3F)CC2CCO)c1 (stereo not drawn)	0.797	
COC(=O)CN(C)C(=O)c1ccc(OC2CCN(C3CCCC3)CC2)c(OC)c1	0.954	
CCn1ccnc1CN(C)C(=O)c1cc(Cn2c(C)nc3ccccc32)[nH]n1	0.94	
CSc1ccc(C(=O)N2CCC(C(Cc3ccccc3F)N(C)C(=O)c3ccoc3C)CC2)cc1 (stereo not drawn)		0.003
CSc1nc(C(=O)N2CCc3[nH]nc(-c4ccccc4F)c3C2)cs1	0.826	
Cc1ccccc1CCC1CCCN(C(=O)C2CCOCC2)C1 (stereo not drawn)	0.856	
CN(CC1COc2ccccc2O1)c1ccc(-c2nc(C3CC3)no2)cn1 (stereo not drawn)	1.04	
O=C(NCCn1cccn1)c1cc(COc2ccccc2F)[nH]n1	0.903	
Cc1nc2ccccc2n1Cc1cc(C(=O)N(C)C(C)c2ccon2)n[nH]1 (stereo not drawn)	0.92	

Compound	bacterial growth OD600 (polymyxin B 1 µg/mL)	bacterial growth OD600 (polymyxin B 0.75 µg/mL)
OCc1ccc(CN2CCc3[nH]nc(C(c4ccccc4)c4ccccc4)c3C2)o1		0.847
COCC1CCN(C(=O)CCc2nnc(C3(c4ccc(Cl)cc4)CCC3)o2)C1 (stereo not drawn)	0.783	
Cc1c(C(C)NCc2ccc(OC(C)C)c(CO)c2)cnn1-c1ccccc1 (stereo not drawn)	0.933	
COc1ccc(-c2ncc(CN3CCC(CO)(Cc4cccc(OC)c4)CC3)cn2)cc1	0.965	
Cc1ccccc1-n1ncc(C(C)NC(=O)Nc2ccccc2F)c1C (stereo not drawn)	0.902	
COc1ccc(CN2CCN(Cc3cnc(C)s3)CC2CCO)cc1C (stereo not drawn)	1.09	
O=C(NC1CCCC1)c1cc(CN2CCOCC2)on1	1.02	
C=CCNc1ccc(C(=O)NCc2nc(CC)cs2)cn1	0.913	
COCCO[C@H]1[C@H](NC(=O)C(C)C)c2ccccc2C12CCN(C(=O)c1cc(C(C)C)nn1C)CC2		0.91
O=C(Cn1nnnc1CN1CCCC1)N1CCN(c2ccc(F)cc2)CC1		0.726
O=C(CCC1CCN(C(=O)CC2CCC(=O)N2)CC1)NCc1cccc(Cl)c1 (stereo not drawn)		0.79
O=C1O[C@@H]2CN(c3nc4ccccc4s3)C[C@@H]2N1Cc1ccccn1	1.14	
Nc1ncc(CN2CCCC(CNC(=O)c3cccc4ccccc34)C2)cn1 (stereo not drawn)		0.855
C=CCN1C(=O)CCC1CCNCCOc1ccc(F)cc1 (stereo not drawn)		1.02
CN(C)c1ncccc1CNCc1cccc(OC2CCCC2)c1	0.935	
O=C1N(Cc2ccc(F)c(F)c2)CCCC1(O)CNCc1cccnc1 (stereo not drawn)	1	

2 of these compounds, set out differently:
Compound,bacterial growth OD600 (polymyxin B 1 µg/mL),bacterial growth OD600 (polymyxin B 0.75 µg/mL)
Cc1c(C(C)NCc2ccc(OC(C)C)c(CO)c2)cnn1-c1ccccc1 (stereo not drawn),0.933,
COc1ccc(-c2ncc(CN3CCC(CO)(Cc4cccc(OC)c4)CC3)cn2)cc1,0.965,
